To fix the notation:
B1: AEBP2 (adipocyte enhancer-binding protein 2) (protein, UniProt Q9Z248 1-504)
chain: MAAALADMADLEELSRLSPLSPGSPGPAARGRAEPPEEEEEEDDEEAEAEAVAALLLNGGAGGGAGGGEAETMSEPSPESASQAGGDEDEDEEDDEDEGSSSGGAEEESSAESLVGSSSGGCSGDETRSLSPGAASSSSGDGDGKEGLEEPKGPRGGPGGPGSSGGGSSSSSVVSSGGDEGYGTGGGGSSATSGGRRGSLEMSSDGEPLSRMDSEDSISSTLMDIDSTISSGRSTPAMMNGQGSTTASSKHIAYNCCWDQCQACFNSSPDLADHIRSIHVDGQRGGVFVCLWKGCKVYNTPSTSQSWLQRHMLTHSGDKPFKCVVGGCNASFASQGGLARHVPTHFSQQNSSKVSSQPKAKEESPSKAGMNKRRKLKNKRRRSLPRPHDFFDAQTLDAIRHRAICFNLSAHIESLGKGHSVVFHSTVIAKRKEESGKIKLLLHWMPEDILPDVWVNESERHQLKTKVVHLSKLPKDTALLLDPNIYRTMPQKRLKRFDILNFPR

Sequences of proteins named here, by UniProt entry; tags and fusion partners are left off.
UniProt Q3URK3: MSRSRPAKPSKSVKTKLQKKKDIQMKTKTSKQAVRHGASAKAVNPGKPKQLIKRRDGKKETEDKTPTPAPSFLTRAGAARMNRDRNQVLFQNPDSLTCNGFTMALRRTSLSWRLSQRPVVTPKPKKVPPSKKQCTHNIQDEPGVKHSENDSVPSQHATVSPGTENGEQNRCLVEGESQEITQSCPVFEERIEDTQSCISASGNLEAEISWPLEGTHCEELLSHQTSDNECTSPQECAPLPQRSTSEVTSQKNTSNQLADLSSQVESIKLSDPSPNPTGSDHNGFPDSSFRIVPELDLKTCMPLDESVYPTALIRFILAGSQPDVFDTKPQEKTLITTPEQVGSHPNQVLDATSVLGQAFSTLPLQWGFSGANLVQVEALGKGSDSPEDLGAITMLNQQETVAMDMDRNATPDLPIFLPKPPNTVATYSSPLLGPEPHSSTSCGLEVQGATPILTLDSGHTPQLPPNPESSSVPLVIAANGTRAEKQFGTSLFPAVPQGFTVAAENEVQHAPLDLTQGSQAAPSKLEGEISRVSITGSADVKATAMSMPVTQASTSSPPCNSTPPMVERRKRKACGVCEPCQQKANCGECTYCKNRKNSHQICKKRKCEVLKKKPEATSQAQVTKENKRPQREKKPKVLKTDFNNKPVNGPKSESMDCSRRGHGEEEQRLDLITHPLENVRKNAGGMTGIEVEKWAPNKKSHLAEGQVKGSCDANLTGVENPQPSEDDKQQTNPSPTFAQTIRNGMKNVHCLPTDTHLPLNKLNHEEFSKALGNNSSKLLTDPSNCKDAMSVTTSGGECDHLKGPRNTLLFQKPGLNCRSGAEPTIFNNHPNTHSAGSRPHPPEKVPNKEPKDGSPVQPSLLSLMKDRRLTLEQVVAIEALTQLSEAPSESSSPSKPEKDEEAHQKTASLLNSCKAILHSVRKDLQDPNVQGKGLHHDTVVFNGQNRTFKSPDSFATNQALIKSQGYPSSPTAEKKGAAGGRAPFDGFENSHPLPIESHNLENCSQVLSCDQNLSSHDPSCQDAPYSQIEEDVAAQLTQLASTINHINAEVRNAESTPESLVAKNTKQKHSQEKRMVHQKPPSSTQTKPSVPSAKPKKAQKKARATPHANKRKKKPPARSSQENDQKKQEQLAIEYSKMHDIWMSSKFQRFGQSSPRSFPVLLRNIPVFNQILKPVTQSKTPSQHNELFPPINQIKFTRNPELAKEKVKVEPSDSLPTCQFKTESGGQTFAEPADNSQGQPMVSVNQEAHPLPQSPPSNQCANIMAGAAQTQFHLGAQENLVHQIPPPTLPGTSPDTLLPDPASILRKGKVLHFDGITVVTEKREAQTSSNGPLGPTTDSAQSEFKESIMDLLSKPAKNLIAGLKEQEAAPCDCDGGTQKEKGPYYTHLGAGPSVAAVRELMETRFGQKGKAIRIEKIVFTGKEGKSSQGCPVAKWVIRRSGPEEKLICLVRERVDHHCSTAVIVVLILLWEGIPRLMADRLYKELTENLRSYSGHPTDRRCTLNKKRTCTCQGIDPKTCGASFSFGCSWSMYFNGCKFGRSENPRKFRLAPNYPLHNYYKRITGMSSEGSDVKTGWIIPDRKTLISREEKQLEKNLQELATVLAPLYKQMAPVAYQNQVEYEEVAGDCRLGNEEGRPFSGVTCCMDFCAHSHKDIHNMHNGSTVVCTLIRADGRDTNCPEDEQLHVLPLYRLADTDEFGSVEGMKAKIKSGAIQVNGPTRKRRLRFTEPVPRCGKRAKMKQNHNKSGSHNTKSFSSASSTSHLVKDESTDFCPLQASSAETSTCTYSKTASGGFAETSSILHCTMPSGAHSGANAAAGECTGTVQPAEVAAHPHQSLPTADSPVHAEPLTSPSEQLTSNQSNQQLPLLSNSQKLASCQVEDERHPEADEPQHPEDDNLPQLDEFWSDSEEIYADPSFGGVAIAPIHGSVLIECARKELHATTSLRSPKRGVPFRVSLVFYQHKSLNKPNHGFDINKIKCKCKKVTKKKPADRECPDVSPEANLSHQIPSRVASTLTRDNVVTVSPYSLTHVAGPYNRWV
UniProt Q921E6: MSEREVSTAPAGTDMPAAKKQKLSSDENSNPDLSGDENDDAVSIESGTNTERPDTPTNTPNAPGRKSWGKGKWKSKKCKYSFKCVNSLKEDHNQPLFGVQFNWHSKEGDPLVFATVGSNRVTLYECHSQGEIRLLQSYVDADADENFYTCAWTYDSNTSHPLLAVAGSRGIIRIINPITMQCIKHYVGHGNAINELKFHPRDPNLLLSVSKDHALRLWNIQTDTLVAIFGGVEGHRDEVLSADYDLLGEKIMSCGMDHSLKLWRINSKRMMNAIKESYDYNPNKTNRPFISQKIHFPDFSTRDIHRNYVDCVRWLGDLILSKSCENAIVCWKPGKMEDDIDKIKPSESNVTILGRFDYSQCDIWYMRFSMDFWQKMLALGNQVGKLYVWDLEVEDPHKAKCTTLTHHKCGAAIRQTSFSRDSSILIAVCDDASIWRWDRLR

These are yes or no findings as the source states them, for the method shown. Binding seen in cells or lysates may run through a third protein. A yes stands for co-enrichment or nearness to the bait. Other partners may have been found. Where a sequence is shown, tags or fusion partners need not be part of it.

This experiment deals with T1, FLAG-tagged form of LIN28A (UniProt Q8K3Y3).
T1 sequence: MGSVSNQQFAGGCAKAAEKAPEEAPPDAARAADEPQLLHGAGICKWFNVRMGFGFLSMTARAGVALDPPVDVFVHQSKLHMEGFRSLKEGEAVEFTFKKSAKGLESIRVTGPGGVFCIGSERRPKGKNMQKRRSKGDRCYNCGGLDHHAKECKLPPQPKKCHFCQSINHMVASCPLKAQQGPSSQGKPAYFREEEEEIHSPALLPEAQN
Put plainly: affinity purification with mass spectrometry.
For “5-methylcytosine ten-eleven translocation dioxygenase (TET1) (from UniProt Q3URK3 1-2039)”, the binding entry was “binds”. The same measure for “EED (embryonic ectoderm development) (from UniProt Q921E6 1-441)”: “binds”. For B1 the value was “binds”.

Source of the values: doi:10.1101/2024.11.19.624261.
